Experimental data as given in patent US12428663B2, “Identification of DNA polymerase theta inactivation mechanism” (The Johns Hopkins University, priority 2018, dated 2025).

Experiments:
Experiment in all cases: activity assay
[1] = molecular target: T1, DNA polymerase theta catalytic core (98 kDa fragment) (Homo sapiens) (UniProt O75417); conditions: kcat/Km dA incorporation, Mg2+, 25 C; Km dATP 5 uM; wt value attributed to ref 28; purified recombinant protein; label: 5'-32P primer
T1 sequence (looked up): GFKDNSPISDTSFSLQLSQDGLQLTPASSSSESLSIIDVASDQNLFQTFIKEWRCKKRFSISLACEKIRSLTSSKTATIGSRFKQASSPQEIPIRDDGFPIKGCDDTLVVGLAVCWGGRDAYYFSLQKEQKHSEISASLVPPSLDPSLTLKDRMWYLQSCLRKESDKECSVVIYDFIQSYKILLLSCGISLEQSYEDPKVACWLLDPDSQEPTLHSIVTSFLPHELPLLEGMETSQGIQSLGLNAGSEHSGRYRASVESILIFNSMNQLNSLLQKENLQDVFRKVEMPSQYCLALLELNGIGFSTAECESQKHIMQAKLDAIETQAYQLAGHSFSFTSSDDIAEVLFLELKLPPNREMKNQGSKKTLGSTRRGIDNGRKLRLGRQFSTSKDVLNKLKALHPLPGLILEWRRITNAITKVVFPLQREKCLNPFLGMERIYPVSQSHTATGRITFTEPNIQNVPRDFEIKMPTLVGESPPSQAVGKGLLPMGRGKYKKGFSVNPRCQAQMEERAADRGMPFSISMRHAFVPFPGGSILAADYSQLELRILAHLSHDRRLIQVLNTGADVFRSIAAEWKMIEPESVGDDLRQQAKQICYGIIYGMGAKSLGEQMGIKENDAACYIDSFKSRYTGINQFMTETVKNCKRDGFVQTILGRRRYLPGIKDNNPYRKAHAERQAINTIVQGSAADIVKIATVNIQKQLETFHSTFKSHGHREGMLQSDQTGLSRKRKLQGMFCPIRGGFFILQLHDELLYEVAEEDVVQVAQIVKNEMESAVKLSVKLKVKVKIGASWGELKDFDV

[2] = molecular target: T2, DNA polymerase theta catalytic core K2383A (Homo sapiens) (UniProt O75417); conditions: kcat/Km dA incorporation, Mg2+, 25 C; Km dATP 1094 uM; purified recombinant protein; label: 5'-32P primer
T2 sequence (looked up): T1 sequence (looked up) with K592A

[3] = molecular target: T3, DNA polymerase theta catalytic core K2383R (Homo sapiens) (UniProt O75417); conditions: kcat/Km dA incorporation, Mg2+, 25 C; Km dATP 311 uM; purified recombinant protein; label: 5'-32P primer
T3 sequence (looked up): T1 sequence (looked up) with K592R

Work on “AGCTGCAGGTCCTA / AGGCCTCACATGCATTTAGGACCTGCAGCT [primer-template 5]” yielded an activity on this sequence [1] of 13.6 µM/min, an activity on this sequence [2] of 0.00048 µM/min and an activity on this sequence [3] of 0.0043 µM/min.

Positions count from the first letter of the chain named. Construct, isoform or probe ends are uncertain for at least one entry. Protein sequences can lack the tags named with them.
